Assay results published in article PMC11148040.
Results are given in words; binding and its absence hold for the method and conditions named. In cells and extracts the contact can be indirect. A yes stands for co-enrichment or nearness to the bait. Other partners may have been found.

Amino acid sequences for entries named in this document (tags omitted).
UniProt A0A125YSP0: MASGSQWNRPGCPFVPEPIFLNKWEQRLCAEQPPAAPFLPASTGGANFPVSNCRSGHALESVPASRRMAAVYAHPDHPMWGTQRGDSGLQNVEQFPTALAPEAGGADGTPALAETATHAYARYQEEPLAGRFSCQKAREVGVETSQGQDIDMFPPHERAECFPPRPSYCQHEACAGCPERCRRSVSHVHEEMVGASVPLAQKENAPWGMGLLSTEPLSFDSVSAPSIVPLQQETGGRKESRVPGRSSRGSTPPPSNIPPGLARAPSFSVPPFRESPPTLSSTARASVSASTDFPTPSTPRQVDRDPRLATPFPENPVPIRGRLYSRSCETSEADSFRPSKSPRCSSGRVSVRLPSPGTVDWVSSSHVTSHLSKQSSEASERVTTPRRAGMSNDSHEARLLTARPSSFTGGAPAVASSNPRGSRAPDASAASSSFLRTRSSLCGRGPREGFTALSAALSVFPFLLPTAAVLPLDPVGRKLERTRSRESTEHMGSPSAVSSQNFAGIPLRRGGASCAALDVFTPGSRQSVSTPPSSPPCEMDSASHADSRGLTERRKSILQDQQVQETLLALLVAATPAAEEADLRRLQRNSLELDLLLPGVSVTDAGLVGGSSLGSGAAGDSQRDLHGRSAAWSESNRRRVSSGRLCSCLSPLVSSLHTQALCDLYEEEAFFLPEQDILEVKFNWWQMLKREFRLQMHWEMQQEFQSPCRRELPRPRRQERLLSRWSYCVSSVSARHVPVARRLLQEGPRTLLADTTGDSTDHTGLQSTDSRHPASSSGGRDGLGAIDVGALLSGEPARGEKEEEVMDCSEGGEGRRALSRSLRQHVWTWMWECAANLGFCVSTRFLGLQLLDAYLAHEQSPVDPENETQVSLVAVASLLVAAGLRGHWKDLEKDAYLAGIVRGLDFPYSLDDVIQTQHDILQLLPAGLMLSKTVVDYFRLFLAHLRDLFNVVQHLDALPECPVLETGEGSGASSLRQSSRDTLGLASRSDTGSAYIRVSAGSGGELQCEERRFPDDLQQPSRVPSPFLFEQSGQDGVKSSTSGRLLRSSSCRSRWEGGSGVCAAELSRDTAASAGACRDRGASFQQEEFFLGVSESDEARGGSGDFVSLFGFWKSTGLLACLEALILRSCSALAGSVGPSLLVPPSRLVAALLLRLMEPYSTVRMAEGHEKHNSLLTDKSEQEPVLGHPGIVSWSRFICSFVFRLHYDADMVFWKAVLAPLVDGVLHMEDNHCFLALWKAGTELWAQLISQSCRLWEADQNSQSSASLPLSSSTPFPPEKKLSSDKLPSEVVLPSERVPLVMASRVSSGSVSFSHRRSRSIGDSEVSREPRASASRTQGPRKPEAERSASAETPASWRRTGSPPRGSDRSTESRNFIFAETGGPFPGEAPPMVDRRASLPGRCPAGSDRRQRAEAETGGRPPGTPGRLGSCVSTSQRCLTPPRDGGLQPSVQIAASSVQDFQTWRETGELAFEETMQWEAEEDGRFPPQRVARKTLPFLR
UniProt A0A125YYV7: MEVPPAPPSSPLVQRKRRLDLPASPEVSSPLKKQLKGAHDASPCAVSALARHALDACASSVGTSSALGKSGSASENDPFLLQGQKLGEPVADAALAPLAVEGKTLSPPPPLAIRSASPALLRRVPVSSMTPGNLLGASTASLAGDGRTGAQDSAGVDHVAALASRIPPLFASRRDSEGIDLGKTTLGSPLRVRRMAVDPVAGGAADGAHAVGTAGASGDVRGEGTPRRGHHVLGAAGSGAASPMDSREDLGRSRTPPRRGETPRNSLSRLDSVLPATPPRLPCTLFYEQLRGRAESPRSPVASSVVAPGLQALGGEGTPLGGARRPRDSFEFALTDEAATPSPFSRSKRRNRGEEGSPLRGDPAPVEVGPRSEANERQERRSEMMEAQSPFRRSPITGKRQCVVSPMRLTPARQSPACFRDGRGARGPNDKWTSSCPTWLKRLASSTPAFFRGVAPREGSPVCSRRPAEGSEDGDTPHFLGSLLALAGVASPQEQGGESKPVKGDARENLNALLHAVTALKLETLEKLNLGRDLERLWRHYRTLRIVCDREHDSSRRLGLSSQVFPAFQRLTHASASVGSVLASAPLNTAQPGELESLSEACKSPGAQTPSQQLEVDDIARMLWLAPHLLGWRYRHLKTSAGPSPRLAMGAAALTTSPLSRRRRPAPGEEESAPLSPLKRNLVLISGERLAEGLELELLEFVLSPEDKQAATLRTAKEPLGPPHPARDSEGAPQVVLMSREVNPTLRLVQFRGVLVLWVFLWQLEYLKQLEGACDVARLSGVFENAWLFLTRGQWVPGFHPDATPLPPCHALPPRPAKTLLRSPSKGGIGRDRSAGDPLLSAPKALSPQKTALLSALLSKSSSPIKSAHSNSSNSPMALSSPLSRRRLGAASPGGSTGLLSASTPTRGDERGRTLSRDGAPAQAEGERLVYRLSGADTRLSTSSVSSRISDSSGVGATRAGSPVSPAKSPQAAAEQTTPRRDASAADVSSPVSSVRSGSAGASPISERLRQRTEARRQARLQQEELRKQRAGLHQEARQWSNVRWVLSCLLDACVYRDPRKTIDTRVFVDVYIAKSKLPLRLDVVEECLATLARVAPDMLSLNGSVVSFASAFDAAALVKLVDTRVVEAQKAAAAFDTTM

Columns and labels:
[1] = biological target: TGME49_247040^myc (Toxoplasma gondii); assay: affinity purification with mass spectrometry; TGME49_247040^myc (TgiRD1^myc) complexes isolated on α-myc magnetic beads from extracted proteins of 10^9 tachyzoites, parental strain as control; two biological replicates; SAINT analysis
[2] = biological target: ^HATgCyc4 (Toxoplasma gondii); assay: affinity purification with mass spectrometry; ^HATgCyc4 complexes immunoisolated on α-HA magnetic beads from extracted proteins (soluble fraction) of 10^9 tachyzoites, parental strain as control; SAINT analysis of spectral counts

Substance | binding [1] | binding [2]
TgCyc4 (TGME49_249880) (from UniProt A0A125YSP0 1-1500) | binds weakly | 
TgiRD1 (TGME49_247040) (from UniProt A0A125YYV7 1-1140) |  | binds
